Here are results for 25 molecules from the supplement of paper PMC8866396.

± gives the standard deviation of the averaged measurements. Some of the results follow. Single values are uncertain here, since repeats match poorly.

The assay deals with IL-6-GFP PC-9GR. Kind of assay: IL-6-GFP fluorescence relative to DMSO control (fraction of control); higher = more IL-6-GFP expression. As to conditions: compound concentration: 10 uM; treatment time: 48 h. On the procedure: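 IL-6-GFP-overexpressing PC-9 and PC-9GR EGFR-mutant lung cancer cells (3000 cells/well, 96-well) were treated for 48 h with each compound of the Selleck L2000 library at 10 uM. IL-6-GFP fluorescence was read on a high-content screening system, and viability by CCK-8 absorbance on a parallel plate set. Each value was normalised as compound well / DMSO control well; two independent replicates.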
Molecule `CN1C(C(=O)Nc2ccccn2)=C(O)c2ccccc2S1(=O)=O` [Piroxicam] showed an IL-6-GFP fluorescence of 1.14 ± 0.48.

`CCC1=CC2CN(C1)Cc1c([nH]c3ccccc13)C(C(=O)OC)(c1cc3c(cc1OC)N(C)C1C(O)(C(=O)OC)C(OC(C)=O)C4(CC)C=CCN5CCC31C54)C2.O=C(O)C(O)C(O)C(=O)O.O=C(O)C(O)C(O)C(=O)O` (stereo not given) [Vinorelbine Tartrate] displayed an IL-6-GFP fluorescence of 0.747 ± 0.2.

`CC1(C)OC2CC3C4CCC5=CC(=O)C=CC5(C)C4(F)C(O)CC3(C)C2(C(=O)CO)O1` (stereo not given) [Triamcinolone Acetonide] came in with an IL-6-GFP fluorescence of 0.769 ± 0.38.

Molecule `CCCC(=O)OC1(C(=O)CCl)C(C)CC2C3CCC4=CC(=O)C=CC4(C)C3(F)C(=O)CC21C` (stereo not given) [clobetasone butyrate] returned an IL-6-GFP fluorescence of 0.971 ± 0.26.

The molecule `C=C(NC(=O)C(=C)NC(=O)c1csc(C2=NC3c4csc(n4)C4NC(=O)c5csc(n5)C(C(C)(O)C(C)O)NC(=O)C5CSC(=N5)/C(=C/C)NC(=O)C(C(C)O)NC(=O)c5csc(n5)C3(CC2)NC(=O)C(C)NC(=O)C(=C)NC(=O)C(C)NC(=O)C(C(C)CC)NC2C=Cc3c(C(C)O)cc(nc3C2O)C(=O)OC4C)n1)C(N)=O` (stereo not given) [Thiostrepton] had an IL-6-GFP fluorescence of 0.678 ± 0.47.

Regarding `OCc1ccccc1OC1OC(CO)C(O)C(O)C1O` (stereo not given) [Salicin], the IL-6-GFP fluorescence turned out to be 0.769 ± 0.22.

`CC(=O)OC12COC1CC(O)C1(C)C(=O)C(O)C3=C(C)C(OC(=O)C(O)C(NC(=O)OC(C)(C)C)c4ccccc4)CC(O)(C(OC(=O)c4ccccc4)C21)C3(C)C.O.O.O` (stereo not given) [Docetaxel Trihydrate]: the IL-6-GFP fluorescence is 1.15 ± 0.38.

For the molecule `CN(C)C(=O)c1cc2cnc(Nc3ccc(N4CCNCC4)cn3)nc2n1C1CCCC1` [Ribociclib (LEE011)], the IL-6-GFP fluorescence amounted to 1.02 ± 0.057.

In turn, `CC(OCC1(c2ccccc2)CCC2(CCC(=O)N2)CN1)c1cc(C(F)(F)F)cc(C(F)(F)F)c1` (stereo not given) [Rolapitant] had an IL-6-GFP fluorescence of 0.897 ± 0.15.

In the case of `CC(C)Cc1ccc(C(C)C(=O)O)cc1.NCCCCC(N)C(=O)O` (stereo not given) [Ibuprofen Lysine], the IL-6-GFP fluorescence was found to be 0.723 ± 0.51.

In the case of `C=C1c2cccc(O)c2C(=O)C2=C(O)C3(O)C(=O)C(C(N)=O)=C(O)C(N(C)C)C3C(O)C12.Cl` (stereo not given) [Methacycline HCl], the IL-6-GFP fluorescence came to 0.933 ± 0.011.

In turn, `CS(=O)(=O)CCNCc1ccc(-c2ccc3ncnc(Nc4ccc(OCc5cccc(F)c5)c(Cl)c4)c3c2)o1.Cc1ccc(S(=O)(=O)O)cc1.Cc1ccc(S(=O)(=O)O)cc1` had an IL-6-GFP fluorescence of 2.44 ± 0.42.

The molecule `C/C=C(/C(=C/C)c1ccc(O)cc1)c1ccc(O)cc1` [Dienestrol] showed an IL-6-GFP fluorescence of 0.734 ± 0.23.

As for `CC#CCn1c(N2CCCC(N)C2)nc2c1c(=O)n(Cc1nc(C)c3ccccc3n1)c(=O)n2C` (stereo not given) [Linagliptin], the IL-6-GFP fluorescence stood at 0.956 ± 0.022.

`COc1cc2ncnc(Nc3ccc(F)c(Cl)c3)c2cc1OCCCN1CCOCC1` [Gefitinib (ZD1839)] showed an IL-6-GFP fluorescence of 1.09 ± 0.14.

`O=C(O)COC(=O)Cc1ccccc1Nc1c(Cl)cccc1Cl` [Aceclofenac] returned an IL-6-GFP fluorescence of 0.899 ± 0.047.

Turning to `CNNCc1ccc(C(=O)NC(C)C)cc1.Cl` [Procarbazine HCl], the IL-6-GFP fluorescence is 1.37 ± 0.63.

For `Nc1nc(CC(=O)Nc2ccc(CCNCC(O)c3ccccc3)cc2)cs1` (stereo not given) [Mirabegron], the IL-6-GFP fluorescence was found to be 0.691 ± 0.22.

In the case of `CCC(C)n1ncn(-c2ccc(N3CCN(c4ccc(OCC5COC(Cn6cncn6)(c6ccc(Cl)cc6Cl)O5)cc4)CC3)cc2)c1=O` (stereo not given) [Itraconazole], the IL-6-GFP fluorescence is 0.792 ± 0.15.

`O=C([O-])c1cc(N=Nc2ccc(O)c(C(=O)[O-])c2)ccc1O.[Na+].[Na+]` [Olsalazine Sodium] came in with an IL-6-GFP fluorescence of 0.768 ± 0.069.

Consider `CC(CN1c2ccccc2Sc2ccccc21)N(C)C.Cl` (stereo not given) [Promethazine HCl], for which the IL-6-GFP fluorescence is 0.575 ± 0.068.

For `CC(=O)OC1C(=O)C2(C)C(O)CC3OCC3(OC(C)=O)C2C(OC(=O)c2ccccc2)C2(O)CC(OC(=O)C(O)C(NC(=O)c3ccccc3)c3ccccc3)C(C)=C1C2(C)C` (stereo not given) [Paclitaxel], the IL-6-GFP fluorescence came to 1.14 ± 0.042.

Molecule `CCC1(O)C(=O)OCc2c1cc1n(c2=O)Cc2cc3cc(O)ccc3nc2-1` [(S)-10-Hydroxycamptothecin] came in with an IL-6-GFP fluorescence of 1.24 ± 0.79.

Molecule `CCc1cc2c(cc1N1CCC(N3CCOCC3)CC1)C(C)(C)c1[nH]c3cc(C#N)ccc3c1C2=O` displayed an IL-6-GFP fluorescence of 1.06 ± 0.2.

With `CNCC(O)c1ccc(O)c(O)c1.O=C(O)C(O)C(O)C(=O)O` (stereo not given) [Epinephrine bitartrate], the IL-6-GFP fluorescence worked out at 1.78 ± 0.32.
